The values that follow come from PubChem BioAssay AID2685 (National Center for Advancing Translational Sciences (NCATS), 2010).

A short description of the assay: qHTS Assay for Lipid Storage Modulators in Drosophila S3 Cells.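 As to cell number change: cells counted by Cell Tracker Red CMTPX staining in the red channel.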 To be noted: BODIPY lipid droplet fluorescence, 18-24 h; for cell number change: measured here: cell count max response, cells fed with added oleic acid. Summed up:
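Drosophila S3 cells got compounds at several concentrations plus oleic acid (400 uM solution). Laser-scanning cytometry with 488 nm excitation read lipid droplets at 500-530 nm and cells at 575-640 nm. Percent activity was relative to 20 uM Triacsin C.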

Where [1] appears, read: measured here: lipid fluorescence (Fed channel) AC50, cells fed with added oleic acid.
The mark [2] stands for this setting: measured here: cell number channel AC50, cells fed with added oleic acid.

A word on the AC50: it is the concentration at which the activity in the assay is half-maximal. A higher AC50 goes with activity only at high concentration.

Each structure is given as a SMILES string. Some of the results follow. Further columns of the screen follow, without active or inactive calls. Compounds called inactive in the main read-out are mostly missing here. The note in brackets gives the kind of curve behind each potency; many fits are weak.

For the compound `CSc1ccc(/C=C/C(=O)c2ccc(NC(=O)C(C)C)cc2)cc1`, the cell number change is -11.5%. Besides, the half-maximal activity concentration (AC50) under setting [1] is 4.11 µM [falling, full curve, poor fit].
Turning to `O=C(NC1CCCC1)C(c1ccncc1)N(C(=O)Cc1cccs1)c1cccc(F)c1` (configuration not stated), the cell number change is -5.13%. Further, the concentration at half-maximal activity (AC50) under setting [2] was 0.731 µM [rising, single point].
For the compound `Cc1ccc(N/C(CSC(N)=O)=N/S(=O)(=O)c2ccccc2)cc1`, the AC50 under setting [1] was 20.6 µM [falling, partial curve].
With `N#Cc1nc(-c2ccccc2F)oc1NCc1ccccc1`, the cell number change is -14.4%.
On the same count and under the same terms, in the case of `O=C(COC(=O)c1cc2c(s1)CCCCC2)NC1CCS(=O)(=O)C1` (configuration not stated) it was -44.4%.
With `CC1=CC(C)(C)N2C(=O)C3(C(C#N)=C(N)OC4=C3C(=O)CC(C)(C)C4)c3c(C)c(C)cc1c32` (configuration not stated), the cell number change was -6.76%. Under setting [2], the concentration at half-maximal activity (AC50) was 1.64 µM [rising, partial curve].
Regarding `COc1ccccc1C(=O)COC(=O)CNS(=O)(=O)c1ccc(C)c(C)c1`, the cell number change is -24%. Besides, the AC50 under setting [1] is 16.4 µM [falling, partial curve].
For the compound `CCOc1ccc(/C=N/N(C)c2ccccc2)cc1OC`, the cell number change is 4.88%. Under setting [1], the half-maximal activity concentration (AC50) is 0.58 µM [rising, single point].
Turning to `O=C(CNC(=O)c1ccccc1)N/N=C/c1ccccc1Cl`, the cell number change was -6.37%.
As for `COc1ccc(N2C(=O)c3cc4ccccc4cc3C2=O)cc1`, the cell number change stood at 34.4%. Also, under setting [2], the half-maximal activity concentration (AC50) is 29.1 µM [rising, partial curve, poor fit]. Moreover, the half-maximal activity concentration (AC50) under setting [1] is 16.4 µM [rising, partial curve, poor fit].
On to `Cc1ccn2c(=O)c(NC(=O)COc3ccccc3)c(C)nc2c1`, for which the cell number change is 8.62%.
On to `Cc1cccc(COc2ccccc2C(=O)N(C)CC(=O)Nc2cccc(F)c2)c1`, for which the cell number change was -11.7%. Under setting [1], the AC50 is 13 µM [rising, partial curve, poor fit].
On to `CCCCCCCC(=O)Oc1ccc(C(=O)Nc2cc(C)on2)cc1`, for which the cell number change was 1.39%. The AC50 under setting [1] was 29.1 µM [falling, single point].
For the compound `COc1ccc(NC(=S)NNC(=O)c2nnn(-c3ccccc3)c2C)cc1`, the cell number change was -1%. Moreover, the AC50 under setting [1] was 7.31 µM [rising, partial curve].
As to `COc1cc(C(=O)N/N=C/c2ccc(OC(=O)c3ccccc3Cl)cc2)ccc1O`, the cell number change is -30.2%. Under setting [2], the concentration at half-maximal activity (AC50) was 1.16 µM [falling, partial curve].
As for `Cc1ccc(SCc2[nH]nc3c2C2(C(=O)Nc4ccc(F)cc42)C(C#N)=C(N)O3)cc1` (configuration not stated), the cell number change amounted to 18.5%. Under setting [1], the half-maximal activity concentration (AC50) is 0.461 µM [rising, full curve, poor fit].
Regarding `Cc1cc(C)cc(OCC(=O)Nc2cccc(-c3nnc(-c4ccco4)o3)c2)c1`, the AC50 under setting [1] is 0.651 µM [falling, single point].
Consider `COc1ccc(-n2c(SCC(=O)N3CCC(C(=O)O)CC3)nc3ccccc3c2=O)cc1OC`, for which the cell number change was -14.3%. For the same compound, the concentration at half-maximal activity (AC50) under setting [1] was 14.6 µM [falling, partial curve].
Regarding `Cc1ccc(N(C(=O)C(F)(F)F)C(C(=O)NC2CCCCC2)c2ccncc2)cc1C` (configuration not stated), the cell number change is 21.6%. The half-maximal activity concentration (AC50) under setting [1] is 0.291 µM [rising, single point].
With `O=C(Cn1c(O)c(/C=C2\C=Nc3ccc(Br)cc32)sc1=O)N1CCCC1`, the AC50 under setting [2] was 7.31 µM [rising, single point].
In the case of `CCc1ccc2[nH]c(C(=O)N(C)c3ccc(F)cc3F)cc2c1`, the cell number change is 20.8%. Also, the AC50 under setting [1] is 0.58 µM [rising, single point].
In the case of `O=C(O)c1cccc(N/N=C/c2cccc3ccccc23)c1`, the cell number change stood at 24.8%. Under setting [1], the AC50 is 29.1 µM [rising, single point].
As to `CC1=C(C)CC2(SC1)C(=O)N(c1ccccc1)N=C2N` (configuration not stated), the cell number change was 54.9%. Moreover, the AC50 under setting [2] is 1.84 µM [rising, full curve].
As to `CCCNS(=O)(=O)c1cccc(C(=O)NC2CCCc3ccccc32)c1` (configuration not stated), under setting [1], the AC50 was 20.6 µM [falling, single point].
In the case of `Cn1cnnc1SCC(=O)N1N=C(c2ccc(Cl)cc2)CC1c1ccco1` (configuration not stated), the cell number change turned out to be 127%.
As to `Cc1ccc(NC(=O)CN(C)C(=O)c2ccc(C(F)(F)F)cc2)cc1`, the cell number change was -20.5%. Besides, the AC50 under setting [2] was 0.092 µM [falling, full curve, poor fit]. In addition, the half-maximal activity concentration (AC50) under setting [1] was 0.116 µM [falling, full curve, poor fit].
Turning to `O=C(COC(=O)c1cccs1)Nc1ccccc1[N+](=O)[O-]`, the cell number change is -104%. Under setting [2], the AC50 is 18.4 µM [falling, partial curve, poor fit].
As to `CC(Oc1ccc(F)cc1)C(=O)Nc1ccccc1N1CCCCC1` (configuration not stated), the cell number change was determined as 64.5%. Moreover, the concentration at half-maximal activity (AC50) under setting [2] is 18.4 µM [rising, partial curve]. Under setting [1], the AC50 was 20.6 µM [rising, partial curve].
As for `O=C(NNc1c2ccccc2nc2ccccc12)c1cccc(O)c1`, the cell number change is -20%. For the same compound, under setting [1], the AC50 is 18.4 µM [falling, single point].
As to `O=C(O)c1ccc(OCc2cn3ccccc3n2)cc1`, the cell number change amounted to 15.4%.
In the case of `Cc1c(C)n(C)c2ccc(C(=O)NCCc3ccco3)cc12`, the AC50 under setting [1] is 2.59 µM [rising, single point].
For `CC(=O)c1sc(NC(=O)C2CC(=O)N(Cc3ccccc3)C2)nc1-c1ccccc1` (configuration not stated), the cell number change is -24.3%. Under setting [1], the AC50 was 8.2 µM [falling, partial curve].
For `COc1ccc(COC(=O)N/N=C(\C)CC(=O)Nc2ccc(Cl)cc2)cc1`, the cell number change is 58.1%. The AC50 under setting [2] was 4.11 µM [rising, partial curve].
Turning to `COc1cc(/C=C/C(=O)OCC(=O)Nc2oc(C)c3c(C)n[nH]c(=O)c23)ccc1OC(F)F`, the AC50 is, setting by setting: under setting [2], 0.013 µM [rising, full curve, poor fit]; under setting [1], 0.517 µM [rising, partial curve, poor fit].
For the compound `CC(=O)Oc1ccccc1-n1c(C)nc(=O)c(-c2ccccc2)c1C`, the cell number change was -11%.
`CCNC(=O)CC1SC(=Nc2ccc(C)cc2)NC1=O` (configuration not stated): the cell number change is -7.94%. The concentration at half-maximal activity (AC50) under setting [2] was 6.51 µM [falling, partial curve, poor fit].
With `CC12CCC(=O)N1c1ccccc1C(=O)N2c1ccccc1` (configuration not stated), the cell number change is -92.7%. Moreover, under setting [2], the half-maximal activity concentration (AC50) is 14.6 µM [falling, partial curve, poor fit]. Besides, the concentration at half-maximal activity (AC50) under setting [1] is 18.4 µM [falling, partial curve].
As for `O=C(COC(=O)c1c(F)cccc1Cl)NC1CCCCC1`, the concentration at half-maximal activity (AC50) under setting [2] was 5.8 µM [rising, single point].
For `COc1cccc(NC(=O)CN(C)C(=O)c2cc3ccccc3cc2OC)c1`, the cell number change was 20.9%. In addition, the concentration at half-maximal activity (AC50) under setting [1] was 7.31 µM [falling, partial curve].
As for `Cc1cccc(CN2CCN(C(c3ccccc3)c3ccc(Cl)cc3)CC2)c1` (configuration not stated), the cell number change is -68.6%. For the same compound, under setting [2], the concentration at half-maximal activity (AC50) was 18.4 µM [falling, single point]. In addition, the AC50 under setting [1] was 16.4 µM [falling, single point].
As to `CN(Cc1ccccc1)C(=O)Cc1ccccc1`, the cell number change was -1.61%. Moreover, the AC50 under setting [1] was 0.326 µM [rising, partial curve, poor fit].
On to `CN(Cc1ccccc1)C(=O)CCC1CCN(S(=O)(=O)N(C)C)CC1`, for which the cell number change was determined as 16.8%.
Take `O=C(CCCN1C(=O)C2CC=CCC2C1=O)Nc1cccc(F)c1` (configuration not stated): the cell number change is 33.1%. Moreover, under setting [2], the AC50 is 32.6 µM [rising, single point].
Take `CC1CCN(c2nc3c(N)ncnc3n2[C@@H]2O[C@H](CO)[C@@H](O)[C@H]2O)CC1`: the cell number change was -13.4%. The AC50 under setting [1] was 3.66 µM [falling, full curve, poor fit].
In the case of `Cn1nc(C(=O)NCc2ccccc2)c2c1-c1ccccc1S(=O)(=O)C2`, the cell number change came out at 3.58%. Besides, the AC50 under setting [1] is 0.731 µM [rising, single point].
In the case of `Nc1ccc(C(=O)N/N=C\C=C\c2cccc([N+](=O)[O-])c2)cc1`, the cell number change amounted to 12%. The AC50 under setting [2] was 0.731 µM [rising, partial curve, poor fit]. Moreover, under setting [1], the concentration at half-maximal activity (AC50) was 0.651 µM [rising, partial curve, poor fit].
As for `COCCN(CCOC)S(=O)(=O)c1ccc(C(=O)Nc2c(C)n(C)n(-c3ccccc3)c2=O)cc1`, the cell number change is -39%. The half-maximal activity concentration (AC50) under setting [2] is 32.6 µM [falling, single point].
Consider `CC1=NC(C#N)=C(C#N)NC(C)(C)C1`, for which the cell number change was found to be 25%. Moreover, the AC50 under setting [1] was 9.2 µM [rising, partial curve, poor fit].
On to `COc1cccc(CN(C)C(=O)C(Cc2ccccc2)NC(=O)c2ccccc2)c1OC` (configuration not stated), for which the cell number change worked out at 13.1%. For the same compound, under setting [1], the AC50 is 29.1 µM [rising, single point].
As for `CCOc1ccccc1NC(=S)NCC1CCCO1` (configuration not stated), under setting [1], the AC50 is 0.461 µM [falling, full curve, poor fit].
In the case of `Cc1cc(C(=O)COC(=O)/C=C/c2ccc(F)cc2)c(C)n1C`, the cell number change was -0.389%. Further, the concentration at half-maximal activity (AC50) under setting [1] was 0.326 µM [rising, full curve].
In the case of `CCC(=O)c1ccc(OCC(O)Cn2nc(C)c(Br)c2C)cc1` (configuration not stated), the cell number change is -6.16%.
Still for that read-out and setting: in the case of `CC(=O)Nc1ccc(C23CC4CC(CC(C4)C2)C3)cc1` it was -59.6%; in that of `COc1ccccc1N1CCN(c2nnc(-c3ccc(F)cc3)c3ccccc23)CC1`, -14.8%.
As to `O=C(NC1CCCCC1)C(c1ccc(F)cc1)N(Cc1ccco1)C(=O)Cn1nnc2ccccc21` (configuration not stated), the concentration at half-maximal activity (AC50) under setting [1] is 7.31 µM [falling, partial curve, poor fit].
Consider `O=C(CN1C(=O)C2C3C=CC(C3)C2C1=O)NC1CCCc2ccccc21` (configuration not stated), for which the cell number change was -4.52%. Besides, the AC50 under setting [1] is 6.51 µM [falling, single point].
As to `C=CCOc1ccc(C2NC(=S)NC3=C2CCc2ccccc23)cc1` (configuration not stated), the cell number change was determined as 38.9%. Under setting [2], the half-maximal activity concentration (AC50) was 4.61 µM [rising, full curve, poor fit]. Moreover, the AC50 under setting [1] is 5.8 µM [rising, full curve].
Consider `N#C/C(=C\c1cccc(Cl)c1)c1n[nH]c(Cn2cncn2)n1`, for which the cell number change came to 39.6%. Besides, the half-maximal activity concentration (AC50) under setting [2] is 14.6 µM [rising, partial curve]. Further, the AC50 under setting [1] was 6.51 µM [falling, partial curve, poor fit].
Consider `Oc1ccccc1N1CCN(c2nnnn2-c2ccccc2)CC1`, for which the cell number change amounted to 14.6%. In addition, the AC50 under setting [1] is 0.517 µM [rising, partial curve, poor fit].
Regarding `Cc1ccc(C(=O)C2=C(O)C(=O)N(CCCN3CCOCC3)C23C(=O)N(C)c2ccccc23)o1` (configuration not stated), the cell number change was -18.6%. For the same compound, the half-maximal activity concentration (AC50) under setting [1] was 23.1 µM [falling, partial curve, poor fit].
As to `CC(C)c1nnc(NC(=O)COC(=O)/C=C/c2ccc([N+](=O)[O-])cc2)s1`, the cell number change came to 10.6%. For the same compound, the concentration at half-maximal activity (AC50) under setting [2] is 1.03 µM [rising, partial curve]. Also, under setting [1], the AC50 is 0.651 µM [rising, full curve, poor fit].
